Screen size: about 330,000 compounds; about 520 (0.16%) were called active. The shares of active, inactive and inconclusive entries below differ from those in the screen.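 The calls were made as follows: active = inhibition of at least 50% in every replicate; inconclusive = best replicate reaches 50% inhibition but some replicates fall short; inactive = the rest.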
The molecules below were run against Histone acetyltransferase RTT109 (Candida albicans (strain SC5314 / ATCC MYA-2876)) (UniProt Q5AAJ8) (assay: Rtt109-Vps75 histone acetyltransferase blockade – biochemical, ThioGlo CoA-SH fluorescence, plate reader, primary screen (AID 540336)). Settings: purified Rtt109/Vps75, ThioGlo CoA-SH fluorescence, 4 h; at 34.9 µM; stronger effect = higher value.

By UniProt entry, the sequences of proteins in these tests, tags left out.
UniProt Q5AAJ8, whole entry, looked up: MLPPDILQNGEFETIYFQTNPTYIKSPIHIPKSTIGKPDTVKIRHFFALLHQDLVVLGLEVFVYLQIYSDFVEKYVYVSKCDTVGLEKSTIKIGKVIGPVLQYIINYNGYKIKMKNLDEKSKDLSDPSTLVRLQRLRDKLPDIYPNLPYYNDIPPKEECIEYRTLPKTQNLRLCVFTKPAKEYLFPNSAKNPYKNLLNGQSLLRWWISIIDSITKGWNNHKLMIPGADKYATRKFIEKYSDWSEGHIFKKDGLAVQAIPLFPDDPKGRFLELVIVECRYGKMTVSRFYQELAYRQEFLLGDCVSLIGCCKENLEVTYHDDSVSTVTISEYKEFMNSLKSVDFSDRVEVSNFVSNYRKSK

Structure (SMILES) | inhibition
CN(CCc1cn[nH]c1)C(=O)CC1C(=O)NCCN1Cc1ccccc1C(F)(F)F (stereo not drawn) | inconclusive: 34.6%
Cc1c(Br)c(O)c(Br)c2sc(=O)oc12 | inconclusive: 82.6%
O=C(COc1ccc(F)cc1Cl)Nc1ccc(N2CCOCC2)cc1N1CCOCC1 | inconclusive: 31.9%
COc1ccc(S(=O)(=O)/N=C2\C=C(NS(=O)(=O)c3ccccc3)C(=O)c3ccccc32)cc1 | inconclusive: 25%
CC(C)(C)NC(=O)c1cccc(NC(=O)c2ccc(NC(=O)c3ccco3)cc2)c1 | inconclusive: 38.2%
Cc1ccc(-n2c(SCC(=O)N3CCCCC3)nc(O)cc2=O)cc1 | inconclusive: 49.7%
Cc1ccc2nc(SCC(=O)Nc3ccc4c(c3)OCCO4)nc(=O)n2c1 | inconclusive: 36.6%
NCC12CC3CC(C1)CC(c1ccc(Cl)cc1)(C3)C2 | active: 50.9%
CC(C)CCNC(=O)c1cccc(Cl)c1 | inconclusive: 27.1%
COc1ccc(CN(C(=O)c2ccc(-c3ccccc3)[nH]2)C(C(=O)NC(C)(C)C)c2ccncc2)cc1 (stereo not drawn) | inconclusive: 31.4%
Cc1c(C(=O)Nc2ccc(S(=O)(=O)NCC3CCCO3)cc2)cccc1[N+](=O)[O-] (stereo not drawn) | inconclusive: 31%
Cc1[nH]n(-c2ccccc2)c(=O)c1C=NC1CCCCC1 | active: 59%
CCCCN(C/C=C/c1ccccc1OC)Cc1ccccc1 | active: 64.1%
Cc1nc(C)c(-c2csc(Nc3ccc(O)cc3C)n2)s1 | inconclusive: 24.3%
Cc1oc2c(C)c3oc(=O)c(CCC(=O)NCCCN4CCOCC4)c(C)c3cc2c1C | inactive: -6.42%
CCOCCc1nnc(NC(=O)Cc2ccc(Br)cc2)s1 | inconclusive: 162%
CC(C(=O)NC1C=CS(=O)(=O)C1)N1C(=O)/C(=C/c2cccc(Cl)c2)SC1=S (stereo not drawn) | inconclusive: 37.4%
COC(=O)c1cc2c(ccn2-c2ccc(F)cc2)n1CC(=O)C(C)(C)C | active: 54.2%
CSCc1ccc(C(=O)NCc2ccc(F)cc2)cc1 | inconclusive: 29.8%
O=C(CN1C(=O)S/C(=C\c2ccc(F)cc2)C1=O)NC1C=CS(=O)(=O)C1 (stereo not drawn) | inconclusive: 29.3%
CCN1/C(=C/C=C/c2sc3ccccc3[n+]2CC)Sc2ccccc21 | active: 65.7%
CCOC(=O)C1CCCN(c2cc(=O)n(C3CCCCC3)c(=O)[nH]2)C1 (stereo not drawn) | active: 58.6%

Structure (SMILES) | inhibition
CN(C(=O)CCc1nc(-c2ccccc2F)no1)c1ccccc1 | active: 54.8%
CC(=O)NS(=O)(=O)c1cccnc1Nc1ccc(Cl)c(Cl)c1 | inactive: 3.27%
COC(=O)CC1(C(=O)OC)Oc2ccccc2C(=O)N1c1ccc(F)cc1F (stereo not drawn) | active: 57.2%
C/C(=N\Nc1cccc(Cl)c1)c1ccncc1 | inactive: 2.58%
O=C(Cc1csc(NC(=O)c2ccc(F)cc2)n1)NO | inactive: -3.09%
CCOC(=O)c1c(N2C(=O)CC(Sc3ccccc3C(=O)O)C2=O)sc2c1CCCC2 (stereo not drawn) | active: 88.3%
Cc1ccc(-c2csc(NC(=O)CSc3nc4ccccc4c(=O)n3CCCN(C)C)n2)cc1 | inconclusive: 42.6%
CCN(CC(=O)Nc1ccc(OC)cc1)C(=O)CSCC(=O)Nc1ccc(C)cc1 | inactive: -1.02%
COc1ccc(C2CC(=O)C(CS(=O)(=O)c3ccccc3)C(=O)C2)cc1 (stereo not drawn) | inconclusive: 44.3%
Cc1ccc(OC(C)C(=O)N(C)Cc2ccccc2)c([N+](=O)[O-])n1 (stereo not drawn) | inactive: 3.97%
CCOC(=O)C(NCCc1ccccc1F)(NC(=O)CC)C(F)(F)F (stereo not drawn) | inconclusive: 20.7%
O=C(C1=C(O)C(=O)N(c2nccs2)C1c1ccccc1)c1cc2ccccc2o1 (stereo not drawn) | inconclusive: 35.7%
O=C1OC(c2cccs2)=N/C1=C\c1ccc(-c2cccc(Cl)c2)o1 | inconclusive: 39.4%
O=C1c2ccccc2C(=O)C12Cc1ccccc1N1CCN(c3ccccc3)CC12 (stereo not drawn) | inconclusive: 31.8%
COC(=O)CN(C(=S)Nc1ccccc1)C1CC(=O)N(c2ccc(OC)cc2)C1=O (stereo not drawn) | inconclusive: 22.8%
COc1ccc(S(=O)(=O)Nc2ccc3c(c2)C(=O)N([C@H](C)CO)C[C@H](C)[C@@H](CN(C)C(=O)NC2CCCCC2)O3)cc1 | inactive: -5.3%
O=C1CC(=O)N(Cc2ccco2)C(=S)N1 | active: 75.6%
Fc1ccc(C2CC(c3ccco3)=Nc3ccccc3S2)cc1 (stereo not drawn) | active: 55.7%
CCOC(=O)N1CCN(C(=O)C(c2ccccc2)c2ccccc2)CC1 | inactive: 7.89%
O=C(C1CCCO1)N1CCN(C(=S)Nc2ccc(Cl)cc2Cl)CC1 (stereo not drawn) | active: 52.7%
NS(=O)(=O)c1ccc(CCNS(=O)(=O)c2cccc(C(=O)O)c2)cc1 | inconclusive: 30.9%
CCOC(=O)c1nn(-c2ccccc2)c(=O)c2c(N)scc12 | inactive: -1.9%

Structure (SMILES) | inhibition
CCOC(=O)C(NC(=O)NCc1cccc(C(F)(F)F)c1)(OCC)C(F)(F)F (stereo not drawn) | inconclusive: 28%
CCOC(=O)c1c(N)sc(C(=O)N2CCCCCC2)c1C | inactive: 11.1%
CCOC(=O)C1=C(C)N(c2ccccc2)C(=O)NC1c1cccc([N+](=O)[O-])c1 (stereo not drawn) | inactive: 6.15%
Cc1ccccc1/C=C/C(=O)NCC(=O)N1CCC(N(C)C2CCCCC2C)CC1 (stereo not drawn) | active: 60.4%
O=C(CNC(=O)c1ccc(Br)o1)NC12CC3CC(CC(C3)C1)C2 | active: 57.6%
O=S(=O)(c1ccc(F)c(F)c1F)N1CCN(C(=S)Nc2ccccc2)CC1 | inactive: 4.1%
Cc1cc(NC(=O)C2C3C(=O)N(Cc4ccc(Cl)cc4)C(C(=O)NCc4ccccc4)C34C=CC2(C)O4)no1 (stereo not drawn) | inconclusive: 44.9%
CC(C)C[C@@H]1CN=C(N)N1C[C@@H]1CCCN1C[C@H](C)N1C[C@@H](Cc2ccccc2)N(CCc2ccc(Cl)c(Cl)c2)C1=N | active: 75.2%
Cc1ccc(N2NC(=O)/C(=C\c3cc4c(cc3[N+](=O)[O-])OCO4)C2=O)cc1C | inactive: 7.42%
CCn1c(CCCCc2n[nH]c(=S)n2CC)n[nH]c1=S | inactive: 12.5%
CC(C)CCN1C(=O)c2ccc(C(=O)N3CCCCC3)cc2C1=O | inconclusive: 36.4%
CCCC(=O)N1CCN(c2ccc(NC(=O)c3ccc(OCC)c([N+](=O)[O-])c3)cc2)CC1 | inconclusive: 62.2%
Cc1cccc(NC(=O)C2CC(=O)n3cnnc3S2)c1 (stereo not drawn) | inconclusive: 37.7%
C=CCSc1nnc(CCc2ccccc2)n1N | inconclusive: 16.5%
CCSC1=N/C(=C\c2ccc(OC)cc2)C(=O)N1 | inconclusive: 35.2%
Cc1ccc(NC(=O)OCc2cc(-c3ccccc3)on2)cc1 | active: 55.8%
CC(C)(C)c1ccc(C(=O)OCc2c(-c3ccccc3)ncc3ccccc23)cc1 | inconclusive: 20.7%
COc1ccc(CNC(=O)C2CCN(S(=O)(=O)c3ccc4c(c3)NC(=O)C(C)S4)CC2)cc1 (stereo not drawn) | inconclusive: 52.7%
O=c1ccc2cc3c([nH]c4ccc(Br)cc43)oc-2c1O | active: 129%
COC(=O)C(Cc1c[nH]c2ccccc12)NC(=O)c1cncc(Br)c1 (stereo not drawn) | inactive: 0.294%
COc1cc(C(=O)/C=C/c2cccnc2)ccc1O | inconclusive: 40.3%
O=C(/C=C/c1cn(CC(O)CN2CCCCC2)c2ccccc12)c1ccccc1 (stereo not drawn) | active: 53%

Structure (SMILES) | inhibition
Cc1cccc(-n2c(O)c(C=NC3CCS(=O)(=O)C3)c3ccccc3c2=O)c1 (stereo not drawn) | inconclusive: 32.9%
COc1ccc(OC)c2sc(N(CCCN(C)C)C(=O)CCS(=O)(=O)c3ccccc3)nc12 | active: 83.1%
Cc1ccc(Nc2ccc(N)cc2S(=O)(=O)O)cc1 | inconclusive: 35.8%
CC(=O)NC(CCS(C)(=O)=O)C(=O)Nc1cc(Cl)ccc1Cl (stereo not drawn) | inactive: -10.2%
CCCCOc1cccc(C(=O)NNC(=S)NC2CCCCC2)c1 | inconclusive: 57.9%
CN(C[C@H](Cc1ccccc1)N(C[C@H](c1ccccc1)N(CCc1ccccc1)N=O)N=O)N=O | inactive: 0.178%
O=C(Cc1cnn(-c2ccccc2)c1)c1ccc(O)c(O)c1O | inconclusive: 39.9%
COc1ccc(C(=O)NCCCNC(=O)c2cccnc2)cc1Br | inactive: -5.43%
N#Cc1c(-c2ccccc2)nc(SCC(=O)N2c3ccccc3Sc3ccccc32)[nH]c1=O | active: 57.8%
COc1ccccc1CCNC(=O)C(=O)c1cn(CC(=O)N2CCCC2)c2ccccc12 | inconclusive: 45.3%
O=Cc1ccc(Oc2cnccn2)cc1 | inconclusive: 28.6%
Cc1nn(C(C)C(=O)NCCN2CCCCCC2)c(=O)c2nn(-c3ccccc3)c(C)c12 (stereo not drawn) | inconclusive: 33%
CCCCCCCCn1cnc2c(N)c(C)c(C)cc21 | inconclusive: 57.3%
Cc1ccc(N/C(N)=N/c2nc(C)cc(N3CCCCC3)n2)c(C)c1 | inconclusive: 34.2%
CN(C)c1ccc(NC(=O)/C=C/c2ccccc2Cl)cc1 | active: 56.1%
Nc1ccc(-c2nc3nc(N)nc(N)c3nc2-c2ccc(N)cc2)cc1 | inconclusive: 32.5%
NC(=O)c1ccsc1NC(=O)COC(=O)Cc1cccc2ccccc12 | inconclusive: 40.1%
Cc1ccccc1CSc1ccc2nnc(-c3ccccn3)n2n1 | inactive: 2%
O=C(N/C(=C\c1ccc(Cl)cc1)C(=O)N1CCOCC1)c1ccc([N+](=O)[O-])cc1 | inactive: 7.18%
Cc1ccsc1C(=O)NNC(=O)CCN1CCN(c2ccccc2)CC1 | inconclusive: 27.2%
Cc1ccc(S(=O)(=O)N2CCCCC2)cc1NC(=O)c1ccc2c(c1)OCO2 | inconclusive: 39.9%
Brc1c(CSc2nncc3ccccc23)nc2ccccn12 | inconclusive: 34.4%
